# Laboratory results: article PMC9352874
# The chains behind the UniProt entries cited, without tags or fusion partners.
# UniProt O95863: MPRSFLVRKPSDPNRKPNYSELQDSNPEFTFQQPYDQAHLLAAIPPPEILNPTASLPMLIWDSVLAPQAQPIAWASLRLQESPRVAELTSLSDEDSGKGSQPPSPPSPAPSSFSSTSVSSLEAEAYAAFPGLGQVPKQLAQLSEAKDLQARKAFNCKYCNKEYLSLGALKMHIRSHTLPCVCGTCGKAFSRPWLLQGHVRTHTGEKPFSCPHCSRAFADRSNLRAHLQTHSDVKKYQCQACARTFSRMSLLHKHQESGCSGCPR
# These are yes or no findings as the source states them, for the method shown. Binding seen in cells or lysates may run through a third protein. Some binding calls cover weakened binding; strength is not graded here.
# T1: DUB3 (UniProt Q6R6M4)
# T1 sequence: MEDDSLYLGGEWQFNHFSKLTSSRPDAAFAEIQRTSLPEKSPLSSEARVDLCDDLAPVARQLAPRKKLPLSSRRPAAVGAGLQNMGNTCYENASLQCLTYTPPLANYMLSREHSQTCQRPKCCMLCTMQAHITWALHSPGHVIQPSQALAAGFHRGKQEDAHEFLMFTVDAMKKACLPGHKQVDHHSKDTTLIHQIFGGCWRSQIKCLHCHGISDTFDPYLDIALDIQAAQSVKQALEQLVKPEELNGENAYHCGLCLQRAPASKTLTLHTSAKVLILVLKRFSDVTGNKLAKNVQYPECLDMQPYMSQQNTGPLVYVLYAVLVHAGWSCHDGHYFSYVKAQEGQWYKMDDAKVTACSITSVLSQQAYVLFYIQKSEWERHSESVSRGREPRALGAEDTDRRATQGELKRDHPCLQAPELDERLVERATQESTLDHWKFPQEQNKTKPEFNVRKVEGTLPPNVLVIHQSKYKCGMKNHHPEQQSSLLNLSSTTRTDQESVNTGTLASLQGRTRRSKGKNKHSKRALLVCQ
# T2: nucleoredoxin (NXN) (UniProt Q6DKJ4)
# T2 sequence: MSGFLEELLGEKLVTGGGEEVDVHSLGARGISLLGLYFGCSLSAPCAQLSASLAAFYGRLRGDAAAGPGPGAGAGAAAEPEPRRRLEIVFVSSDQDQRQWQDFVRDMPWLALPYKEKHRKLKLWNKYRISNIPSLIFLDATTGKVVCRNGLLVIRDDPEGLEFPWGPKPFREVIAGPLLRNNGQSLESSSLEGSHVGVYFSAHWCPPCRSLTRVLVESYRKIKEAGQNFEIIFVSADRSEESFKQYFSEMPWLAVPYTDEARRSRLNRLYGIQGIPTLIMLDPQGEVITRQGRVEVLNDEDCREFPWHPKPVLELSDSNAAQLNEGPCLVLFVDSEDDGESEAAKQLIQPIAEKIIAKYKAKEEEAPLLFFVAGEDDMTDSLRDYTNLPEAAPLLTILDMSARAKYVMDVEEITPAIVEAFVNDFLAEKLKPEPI
# Assays:
# DUB3 [1] = biological target: T1, DUB3; assay: co-IP; total lysates of cells with or without NXN overexpression, cells treated with MG132; IP with anti-DUB3 or anti-Snail Ab, Western blot
# nucleoredoxin (NXN) = biological target: T2, nucleoredoxin (NXN); assay: co-IP; 293 T and PLC-8024 cells lysed with RIPA lysis buffer; antibody incubated with the lysates at 4 °C overnight, Protein A/G-Agarose beads, Western blot
# DUB3 [2] = biological target: T1, DUB3; assay: as above
# Snail (encoded by SNAI1) = Snail (encoded by SNAI1) (UniProt O95863); assay: as above
Molecule,binding (DUB3 [1]),binding (nucleoredoxin (NXN)),binding (DUB3 [2]),binding (Snail (encoded by SNAI1))
Snail (encoded by SNAI1) (from UniProt O95863 1-264),binds,no binding,binds,–
"nucleoredoxin (NXN) (protein, UniProt Q6DKJ4 1-435) MSGFLEELLGEKLVTGGGEEVDVHSLGARGISLLGLYFGCSLSAPCAQLSASLAAFYGRLRGDAAAGPGPGAGAGAAAEPEPRRRLEIVFVSSDQDQRQWQDFVRDMPWLALPYKEKHRKLKLWNKYRISNIPSLIFLDATTGKVVCRNGLLVIRDDPEGLEFPWGPKPFREVIAGPLLRNNGQSLESSSLEGSHVGVYFSAHWCPPCRSLTRVLVESYRKIKEAGQNFEIIFVSADRSEESFKQYFSEMPWLAVPYTDEARRSRLNRLYGIQGIPTLIMLDPQGEVITRQGRVEVLNDEDCREFPWHPKPVLELSDSNAAQLNEGPCLVLFVDSEDDGESEAAKQLIQPIAEKIIAKYKAKEEEAPLLFFVAGEDDMTDSLRDYTNLPEAAPLLTILDMSARAKYVMDVEEITPAIVEAFVNDFLAEKLKPEPI",–,–,binds,no binding
